Experimental findings from patent US20230127839A1, “COMPOUNDS AND COMPOSITIONS FOR TREATING CONDITIONS ASSOCIATED WITH STING ACTIVITY” (IFM Due, Inc., priority 2019, published 2023) are described below.

Chains of the proteins cited; added tags and fusions are not shown.
UniProt Q86WV6, whole entry R71H/G230A/H232R/R293Q: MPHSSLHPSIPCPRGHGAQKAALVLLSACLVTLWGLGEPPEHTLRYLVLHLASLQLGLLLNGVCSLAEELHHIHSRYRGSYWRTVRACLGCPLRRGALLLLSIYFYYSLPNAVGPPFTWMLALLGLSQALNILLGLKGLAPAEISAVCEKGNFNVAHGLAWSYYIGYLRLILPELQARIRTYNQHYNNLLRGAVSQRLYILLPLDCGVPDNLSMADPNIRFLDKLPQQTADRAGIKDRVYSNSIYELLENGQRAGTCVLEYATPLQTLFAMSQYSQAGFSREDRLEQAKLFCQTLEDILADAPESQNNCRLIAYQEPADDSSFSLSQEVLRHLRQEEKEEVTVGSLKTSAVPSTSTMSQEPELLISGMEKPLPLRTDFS

As a reminder, the EC50 is the concentration giving half of the maximal effect.

For the test, the target named is hSTING (Homo sapiens, UniProt Q86WV6, G230A/H232R/R293Q/R71H). The test can be described thus: STING reporter assay (luciferase) in THP1-Dual KO-IFNAR2 cells stimulated with 2'3'cGAMP. To be noted: read-out: hSTING EC50, 2'3'cGAMP 15 μM, 24 h, luciferase reporter activity. The method, then:
STING pathway activation by the compounds described herein is measured using THP1-Dual™ cells (KO-IFNAR2).
THP1-Dual™ KO-IFNAR2 Cells (obtained from invivogen) are maintained in RPMI, 10% FCS, 5 ml P/S, 2 mM L-glut, 10 mM Hepes, and 1 mM sodium pyruvate.
Compounds are spotted in empty 384 well tissue culture plates (Greiner 781182) by Echo for a final concentration of 0.0017-100 μM. Cells are plated into the TC plates at 40 μL per well, 2×10E6 cells/mL. For activation with STING ligand, 2′3′cGAMP (MW 718.38, obtained from Invivogen), is prepared in Optimem media.
The following solutions are prepared for each 1×384 plate: • Solution A: 2 mL Optimem with one of the following stimuli: • 60 uL of 10 mM 2′3′cGAMP->150 μM stock • Solution B: 2 mL Optimem with 60 μL Lipofectamine 2000->Incubate 5 min at RT
2 mL of solution A and 2 ml Solution B is mixed and incubated for 20 min at room temperature (RT). […] Luciferase reporter activity is then measured. EC50 values are calculated by using standard methods known in the art.
Luciferase reporter assay: 10 μL of supernatant from the assay is transferred to white 384-plate with flat bottom and squared wells. […] Luminescence is measured on a Platereader (e.g., Spectramax I3X (Molecular Devices GF3637001)).
Luciferase reporter activity is then measured. EC50 values are calculated by using standard methods known in the art.

The match of structure and compound is tentative.

For `O=C(Nc1cnc(C2COC3(CCC(F)(F)CC3)OC2)c(Cl)c1)Nc1c[nH]c2ccc(Cl)cc12`, the EC50 lay in the range of 0.04 to 0.2 µM.

Turning to `N#Cc1cc(NC(=O)Nc2c[nH]c3ccc(F)cc23)cnc1C1CCC(F)(F)CC1`, the EC50 lay in the range of 0.04 to 0.2 µM.
